Drawing on article PMC7327037, this text covers binding for five molecules.

Sequences of proteins named here, by UniProt entry; tags and fusion partners are left off.
UniProt P42338: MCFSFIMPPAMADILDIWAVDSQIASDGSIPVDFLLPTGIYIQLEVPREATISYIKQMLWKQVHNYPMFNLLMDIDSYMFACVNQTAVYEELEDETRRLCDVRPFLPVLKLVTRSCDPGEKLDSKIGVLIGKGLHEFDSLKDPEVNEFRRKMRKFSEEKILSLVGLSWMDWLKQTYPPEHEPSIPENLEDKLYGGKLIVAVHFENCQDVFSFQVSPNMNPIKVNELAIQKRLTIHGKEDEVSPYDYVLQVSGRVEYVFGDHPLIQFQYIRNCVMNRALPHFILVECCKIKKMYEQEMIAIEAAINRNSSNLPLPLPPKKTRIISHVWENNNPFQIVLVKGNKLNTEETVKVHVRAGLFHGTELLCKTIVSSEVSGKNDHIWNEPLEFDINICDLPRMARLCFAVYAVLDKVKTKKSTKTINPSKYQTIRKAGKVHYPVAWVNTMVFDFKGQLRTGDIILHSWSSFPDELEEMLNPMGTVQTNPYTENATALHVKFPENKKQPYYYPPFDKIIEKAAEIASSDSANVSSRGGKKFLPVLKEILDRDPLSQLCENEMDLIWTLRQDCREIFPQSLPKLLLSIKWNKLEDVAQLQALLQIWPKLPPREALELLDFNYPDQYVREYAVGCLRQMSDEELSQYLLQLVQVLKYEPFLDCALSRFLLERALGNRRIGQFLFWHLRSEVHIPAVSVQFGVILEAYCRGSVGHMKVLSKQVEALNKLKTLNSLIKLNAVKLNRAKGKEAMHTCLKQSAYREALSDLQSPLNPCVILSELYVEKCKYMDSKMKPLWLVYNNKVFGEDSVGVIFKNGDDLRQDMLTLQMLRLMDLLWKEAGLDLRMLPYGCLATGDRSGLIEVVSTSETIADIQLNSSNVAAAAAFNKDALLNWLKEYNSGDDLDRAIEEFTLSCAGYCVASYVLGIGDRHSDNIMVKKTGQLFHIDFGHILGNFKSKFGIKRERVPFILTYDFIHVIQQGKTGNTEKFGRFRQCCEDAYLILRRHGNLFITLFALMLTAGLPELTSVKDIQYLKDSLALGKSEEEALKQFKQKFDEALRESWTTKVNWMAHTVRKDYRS

No constants are given. Whether binding was seen depends on the method and setting. Binding seen in cells or lysates may run through a third protein. Some entries that bind do so weakly or less than the wild type. For some assays here: Where a sequence is shown, tags or fusion partners need not be part of it.

In test [1] the target is T1, FOXM1D as used in the GST pull down assays (Supplementary Fig. 3b, 4c) (UniProt Q08050).
T1 sequence: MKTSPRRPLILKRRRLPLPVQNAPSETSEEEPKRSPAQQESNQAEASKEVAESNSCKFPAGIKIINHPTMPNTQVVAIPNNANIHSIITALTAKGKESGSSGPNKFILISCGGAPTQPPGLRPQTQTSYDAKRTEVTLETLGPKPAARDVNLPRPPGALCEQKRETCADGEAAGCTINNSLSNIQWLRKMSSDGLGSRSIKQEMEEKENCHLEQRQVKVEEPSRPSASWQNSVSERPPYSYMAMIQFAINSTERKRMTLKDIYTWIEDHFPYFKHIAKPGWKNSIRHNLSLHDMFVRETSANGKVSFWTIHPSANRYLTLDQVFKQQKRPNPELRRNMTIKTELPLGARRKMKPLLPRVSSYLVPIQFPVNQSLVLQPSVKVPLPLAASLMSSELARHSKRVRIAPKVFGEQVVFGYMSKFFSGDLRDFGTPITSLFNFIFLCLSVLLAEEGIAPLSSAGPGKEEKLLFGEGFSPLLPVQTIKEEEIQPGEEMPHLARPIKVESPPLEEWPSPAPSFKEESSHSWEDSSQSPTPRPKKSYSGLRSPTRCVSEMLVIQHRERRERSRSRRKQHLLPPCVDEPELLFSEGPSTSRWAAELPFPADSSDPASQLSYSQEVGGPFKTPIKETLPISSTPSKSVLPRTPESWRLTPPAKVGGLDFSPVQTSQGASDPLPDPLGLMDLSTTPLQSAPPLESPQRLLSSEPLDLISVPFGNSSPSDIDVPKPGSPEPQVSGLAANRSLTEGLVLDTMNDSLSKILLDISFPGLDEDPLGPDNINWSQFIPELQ
As to the kind of experiment: pull-down; GST pull down (Supplementary Fig. 3b, 4c); which partner carried GST not told in the text shown.

The target of test [2] is T2, FOXM1D as used in the co-IP and reverse/reciprocal co-IP assays (Fig. 1b, f, g; Supplementary Fig. 3a) (UniProt Q08050).
T2 sequence: T1 sequence
As to the kind of experiment: co-IP; co-IP and reverse (reciprocal) co-IP (Fig. 1b, f, g; Supplementary Fig. 3a); cells, tags and antibodies not told in the text shown.

Test [3] concerns the target T3, FLAG-FOXM1D (Forkhead box M1 isoform D), expressed in 293FT cells (UniProt Q08050).
T3 sequence: T1 sequence
As to the kind of experiment: co-IP; lysates/extracts of 293FT cells expressing FLAG-FOXM1D or FLAG-tagged truncated mutants (with HA-p85α plasmids for p85α); precipitated with a FLAG antibody; immunoblot with FLAG and p110β or HA antibodies.

For test [4], the target named is p110β as used in the co-IP (Fig. 1b) and reverse co-IP (Supplementary Fig. 3a) assays (UniProt P42338). As to the kind of experiment: co-IP; co-IP and reverse (reciprocal) co-IP (Fig. 1b, f, g; Supplementary Fig. 3a); cells, tags and antibodies not told in the text shown.

With “p110β as used in the GST pull down assay (Supplementary Fig. 3b) (from UniProt P42338 1-1070)”, in test [1], the binding result is “binds”. On to “p110β as used in the co-IP (Fig. 1b) and reverse co-IP (Supplementary Fig. 3a) assays (from UniProt P42338 1-1070)”, for which the binding result in test [2] is “binds”. For the molecule “p110β in 293FT cell lysates (detected with a p110β antibody, Fig. 1e) (from UniProt P42338 1-1070)”, the binding entry in test [3] was “binds”.

B1: FOXM1D as used in the co-IP and reverse/reciprocal co-IP assays (Fig. 1b, f, g; Supplementary Fig. 3a) (protein, UniProt Q08050-4 1-786)
chain: T1 sequence
Take B1: in test [4], the binding result is listed as “binds”.

B2: p110δ as used in the co-IP assay of Fig. 1b (protein, UniProt O00329 1-1044)
chain: MPPGVDCPMEFWTKEENQSVVVDFLLPTGVYLNFPVSRNANLSTIKQLLWHRAQYEPLFHMLSGPEAYVFTCINQTAEQQELEDEQRRLCDVQPFLPVLRLVAREGDRVKKLINSQISLLIGKGLHEFDSLCDPEVNDFRAKMCQFCEEAAARRQQLGWEAWLQYSFPLQLEPSAQTWGPGTLRLPNRALLVNVKFEGSEESFTFQVSTKDVPLALMACALRKKATVFRQPLVEQPEDYTLQVNGRHEYLYGSYPLCQFQYICSCLHSGLTPHLTMVHSSSILAMRDEQSNPAPQVQKPRAKPPPIPAKKPSSVSLWSLEQPFRIELIQGSKVNADERMKLVVQAGLFHGNEMLCKTVSSSEVSVCSEPVWKQRLEFDINICDLPRMARLCFALYAVIEKAKKARSTKKKSKKADCPIAWANLMLFDYKDQLKTGERCLYMWPSVPDEKGELLNPTGTVRSNPNTDSAAALLICLPEVAPHPVYYPALEKILELGRHSECVHVTEEEQLQLREILERRGSGELYEHEKDLVWKLRHEVQEHFPEALARLLLVTKWNKHEDVAQMLYLLCSWPELPVLSALELLDFSFPDCHVGSFAIKSLRKLTDDELFQYLLQLVQVLKYESYLDCELTKFLLDRALANRKIGHFLFWHLRSEMHVPSVALRFGLILEAYCRGSTHHMKVLMKQGEALSKLKALNDFVKLSSQKTPKPQTKELMHLCMRQEAYLEALSHLQSPLDPSTLLAEVCVEQCTFMDSKMKPLWIMYSNEEAGSGGSVGIIFKNGDDLRQDMLTLQMIQLMDVLWKQEGLDLRMTPYGCLPTGDRTGLIEVVLRSDTIANIQLNKSNMAATAAFNKDALLNWLKSKNPGEALDRAIEEFTLSCAGYCVATYVLGIGDRHSDNIMIRESGQLFHIDFGHFLGNFKTKFGINRERVPFILTYDFVHVIQQGKTNNSEKFERFRGYCERAYTILRRHGLLFLHLFALMRAAGLPELSCSKDIQYLKDSLALGKTEEEALKHFRVKFNEALRESWKTKVNWLAHNVSKDNRQ
In the case of B2, in test [2], the binding entry is listed as “binds”.
